# Data as given in PubChem BioAssay AID686937 (Drosophila RNAi Screening Center, 2013).
# Assay: 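Genes whose loss weakens secretory pathway function in fly cells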 (primary screen)
# Cell system: Drosophila S2 cells expressing secreted horseradish peroxidase
# Reagents: long dsRNA against Drosophila genes
# Duration: about 5.5 days (5 days dsRNA, then 12 h reporter induction)
# Conditions: reporter expression induced after 5 days of dsRNA, read 12 h later; inducer not stated
# Measured: 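Chemiluminescent measurement of peroxidase in the medium 12 h after reporter induction, following 5 days of dsRNA, given as a z-score per plate; higher means more secretion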
# Reading the numbers: z-score: higher = more reporter secreted into medium
# The screen tested about 23,000 reagents; this is a random part of those that have a named target and a result. 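Reduced-secretion tags in replicate 1 do not always agree with the z-scores; no criterion for assigning the tags was given.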 Names joined by + are all predicted targets of the reagent. No sequences are given here. The record does not give: the amount of reagent.
gene,PubChem SID,"z-score, replicate 1","z-score, replicate 2","z-score, replicate 3","z-score, replicate 4","phenotype, replicate 1"
SdhD,SID104194007,0.59,0.32,,,
CG10077,SID104189483,0.03,0.09,,,
CG30472,SID104201771,-0.04,0.28,,,
Apoltp,SID104182300,0.41,0.33,,,
CG4367,SID104195360,0.27,0.31,,,
Fbl6,SID104186127,0.3,0.36,,,
CG11159,SID104185842,-0.78,-0.42,,,
Orcokinin,SID104183994,-0.26,0.3,,,
Nbr,SID104182958,0.17,0.19,,,
CG13838,SID104194480,0.55,-0.08,0.4,0.17,
Ubr1,SID104199940,0.77,0.68,,,
CG15167,SID104182260,0.16,0.18,,,
CG17230,SID104194995,0.45,0.59,,,
CG34299,SID104193766,0.11,-0.15,,,
klar,SID104188510,0.16,0.35,,,
klar,SID104201871,0.38,0.75,,,
CG15646,SID104199474,0.21,0.44,,,
CIA30,SID104196058,0.28,0.5,,,
SdhA,SID104187339,0.37,0.2,,,
Ir7a,SID104197658,-0.16,0.03,,,
CG14143,SID104189938,0.62,0.36,,,
CG6933,SID104190543,0.07,0.1,,,
lncRNA:CR43270,SID104191367,0.36,0.13,,,
TotA,SID104193240,0.17,-0.17,,,
Decay,SID104196722,-0.45,0.06,,,
CG15208,SID104199446,0.06,0.02,,,
PH4alphaSG1,SID104194872,0.17,0.2,,,
CG7886,SID104196125,0.18,0.44,,,
Gr58b,SID104183932,0.15,0.45,,,
CG14362,SID104194616,-0.03,0.43,,,
CG17167,SID104200694,0.31,-0.27,,,
CG17167,SID104200695,-0.23,-0.58,,,
Alg12,SID104196208,0.33,0.32,,,
CG14879,SID104194795,0.34,0.52,,,
CG17999,SID104184092,0.25,0.47,,,
Btk,SID104181800,0.61,0.24,,,
Btk,SID104182458,0.1,0.14,,,
Btk,SID104201898,0.28,0.14,,,
CG34334,SID104200435,0.06,0.18,,,
CG1486,SID104200300,0.32,0.22,,,
mei-9,SID104198584,0.34,0.48,,,
CG1344,SID104184629,0.19,0.35,,,
Gle1,SID104186277,0.32,0.46,,,
nAChRbeta2,SID104196802,0.33,0.23,,,
Chpf,SID104199283,0.38,0.05,,,
Chpf,SID104199685,0.31,0.23,,,
Acsl,SID104187044,0.54,0.5,,,
dpr12,SID104184606,-3.13,,,,reduced secretion
dpr12,SID104184655,0.25,0.32,,,
dpr12,SID104184684,0.57,0.41,,,
Mabi,SID104182281,0.01,0.28,-0.15,0.17,
RpL11,SID104187329,0.29,0.4,,,
snRNA:U1:95Cc + CG43285 (retired record),SID104193432,-2.6,-0.7,,,reduced secretion
poe,SID104183385,0.68,0.54,,,
CG43902,SID104197642,0.53,0.45,,,
CG43902,SID104197791,0.16,0.15,,,
Pal1,SID104185898,0.5,0.41,,,
l(3)80Fj,SID104200778,-0.4,-0.17,,,
l(3)80Fj,SID104200781,0.02,0.28,,,
CG15203,SID104199442,0.21,0.31,,,
cg,SID104187442,-5.48,-7.95,,,reduced secretion
PH4alphaEFB,SID104194265,0.42,0.39,,,
PH4alphaEFB,SID104194742,0.35,0.28,,,
CG5550,SID104186735,0.25,-0.6,,,
mRpL4,SID104183354,0.06,0.08,,,
pcm,SID104200153,0.37,0.03,,,
CG10413,SID104181844,0.4,0.26,,,
CG3281,SID104195262,0.03,0.45,,,
CG33648,SID104181179,0.6,0.16,,,
CG5543,SID104184303,-0.49,-0.32,,,
CG13978,SID104194512,0.4,0.42,,,
Brms1,SID104199688,-0.94,-0.07,,,
Sod2,SID104187346,-0.07,0.25,,,
CG18190,SID104186506,0.31,0.41,,,
Osi24,SID104192067,0.01,0.49,,,
CG10663,SID104189562,0.33,-0.15,,,
Mal-A5,SID104187024,0.55,0.44,,,
CG5024,SID104195490,0.2,0.26,,,
CG8841,SID104187078,0.42,0.37,,,
CG14130,SID104189926,0.44,0.18,,,
CG17211,SID104182379,-0.16,0.11,,,
Sytbeta,SID104189801,0.37,0.3,,,
Sytbeta,SID104190143,0.3,0.4,,,

No new results follow: entries from further up.
gene,PubChem SID,"z-score, replicate 1","z-score, replicate 2","z-score, replicate 3","z-score, replicate 4","phenotype, replicate 1"
CG14362,SID104194616,-0.03,0.43,,,
CG17167,SID104200694,0.31,-0.27,,,
CG17167,SID104200695,-0.23,-0.58,,,
Alg12,SID104196208,0.33,0.32,,,
CG14879,SID104194795,0.34,0.52,,,
CG17999,SID104184092,0.25,0.47,,,
Btk,SID104181800,0.61,0.24,,,
Btk,SID104182458,0.1,0.14,,,
Btk,SID104201898,0.28,0.14,,,
CG34334,SID104200435,0.06,0.18,,,
CG1486,SID104200300,0.32,0.22,,,
mei-9,SID104198584,0.34,0.48,,,
CG1344,SID104184629,0.19,0.35,,,
Gle1,SID104186277,0.32,0.46,,,
